Record: PubChem BioAssay AID1259425 (University of Nebraska Medical Center, 2018)

Test: 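Compare each knockdown with KSR1 silencing using changes in marker transcripts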 (primary screen)
Cells: HCT116 human colon cancer cells
Reagent: siRNA pool against human genes, 50 nM siRNA
Measured: 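mRNA of six signature genes measured together by branched-DNA assay after 50 nM siRNA pool, blank removed, divided by geometric mean of two housekeeping genes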
Scale: BNIP3L mRNA: higher = more BNIP3L transcript after knockdown
This is a random part of about 14,000 deposited reagents. Not all columns of the deposit are shown. Not given: the time to read-out.

gene	BNIP3L mRNA, set 1
HTR7	0.117
NSDHL	0.0682
SP7	0.138
FRMD8P1	0.119
EDEM2	0.083
RNF113A	0.0886
BMP6	0.0537
CYTL1	0.0503
TAS2R14	0.15
EIF3H	0.0753
SPIN1	0.383
B4GALT2	0.155
LRRTM4	0.314
CORO1C	0.0779
LINC00339	0.112
CHAT	0.132
TUBB4B	0.0651
ATP10B	0.156
CEP250	0.14
DPEP3	0.0768
DAXX	0.064
PELI2	0.225
AVEN	0.0987
CTDSPL2	0.107
KCNH4	0.0984
PAX2	0.121
PDCD5	0.0834
MRPL27	0.0965
NEFM	0.116
CCDC40	0.0992
PTMS	0.096
PUM1	0.199
CFHR5	0.117
RPTOR	0.0484
MANSC1	0.117
MYH3	0.0746
TMEM128	0.0808
CD80	0.308
HSD17B6	0.0858
HEATR6	0.131
THAP9	0.1
GPR55	0.34

Laid out differently: entries from further up.
| gene | BNIP3L mRNA, set 1 |
| --- | --- |
| HTR7 | 0.117 |
| NSDHL | 0.0682 |
| SP7 | 0.138 |
| FRMD8P1 | 0.119 |
| EDEM2 | 0.083 |
| RNF113A | 0.0886 |
| BMP6 | 0.0537 |
| CYTL1 | 0.0503 |
| TAS2R14 | 0.15 |
| EIF3H | 0.0753 |

Further entries:
gene	BNIP3L mRNA, set 1
PMVK	0.0369
MTMR14	0.0741
CTSK	0.0669
POLR1E	0.109
HSD17B10	0.123
URB2	0.11
TLE4	0.1
TBC1D22B	0.0872
SELPLG	0.115
BIRC6	0.089
DIO2	0.148
TNFSF4	0.0732
RNPEP	0.0443
APC2	0.13
RARS1	0.154
SLC6A3	0.147
KRTAP1-5	0.383
DVL1	0.0949
EMG1	0.174
ST7L	0.257
HMG20A	0.0786
